Source: publication PMC9039736
These are yes or no findings as the source states them, for the method shown. In cells and extracts the contact can be indirect. A result given as binding can be weak or reduced; the word gives no strength.

Target: T1, SMYD3 (endogenous) (human (endogenous in HT-29, HGC-27, HLC-19, CAPAN-1)) (UniProt Q9H7B4)
T1 sequence: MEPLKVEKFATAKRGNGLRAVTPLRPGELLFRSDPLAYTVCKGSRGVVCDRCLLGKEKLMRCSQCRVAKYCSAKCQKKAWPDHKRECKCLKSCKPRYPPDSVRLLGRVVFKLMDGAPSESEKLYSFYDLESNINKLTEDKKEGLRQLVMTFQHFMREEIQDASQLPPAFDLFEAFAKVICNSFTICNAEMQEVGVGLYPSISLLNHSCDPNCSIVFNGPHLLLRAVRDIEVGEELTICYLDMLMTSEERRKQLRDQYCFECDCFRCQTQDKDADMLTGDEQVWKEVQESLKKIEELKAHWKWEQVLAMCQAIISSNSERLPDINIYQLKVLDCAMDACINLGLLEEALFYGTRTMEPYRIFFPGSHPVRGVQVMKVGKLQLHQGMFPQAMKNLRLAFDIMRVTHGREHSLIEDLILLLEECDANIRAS
Experiment: co-IP; endogenous proteins in whole-cell lysates (HT-29; for some pairs also HGC-27, HLC-19, CAPAN-1); IP with antibody to SMYD3 or to the partner on Dynabeads Protein A or G, immunoblot; lysis buffer 50 mM Tris-HCl pH 7.4, 5 mM EDTA, 250 mM NaCl, 1% Triton X-100; for phospho-MET cells serum-starved 24 h, then 10 ng/ml HGF for 2 h

5'AMP-activated protein kinase (AMPK) (endogenous) (complex)
binding: binds
